From PubChem BioAssay AID1671190 (National Center for Advancing Translational Sciences (NCATS), 2021)
Out of some 580,000 compounds screened, about 6,100 (1.1%) were called active. This list was built around the results that the source calls inconclusive (neither active nor inactive); the mix of calls is not that of the screen. The call rests on the fitted dose curve; in most records, active means well fitted inhibition curve with a large enough effect; inconclusive means small, poorly fitted or top-dose-only effect, or another doubt; inactive means no such curve, though single readings can be large or run the other way. Potencies beside an inconclusive call are fits to weak or partial responses and may not hold up.

By UniProt entry, the sequences of proteins in these tests, tags left out.
UniProt P18054, whole entry, looked up: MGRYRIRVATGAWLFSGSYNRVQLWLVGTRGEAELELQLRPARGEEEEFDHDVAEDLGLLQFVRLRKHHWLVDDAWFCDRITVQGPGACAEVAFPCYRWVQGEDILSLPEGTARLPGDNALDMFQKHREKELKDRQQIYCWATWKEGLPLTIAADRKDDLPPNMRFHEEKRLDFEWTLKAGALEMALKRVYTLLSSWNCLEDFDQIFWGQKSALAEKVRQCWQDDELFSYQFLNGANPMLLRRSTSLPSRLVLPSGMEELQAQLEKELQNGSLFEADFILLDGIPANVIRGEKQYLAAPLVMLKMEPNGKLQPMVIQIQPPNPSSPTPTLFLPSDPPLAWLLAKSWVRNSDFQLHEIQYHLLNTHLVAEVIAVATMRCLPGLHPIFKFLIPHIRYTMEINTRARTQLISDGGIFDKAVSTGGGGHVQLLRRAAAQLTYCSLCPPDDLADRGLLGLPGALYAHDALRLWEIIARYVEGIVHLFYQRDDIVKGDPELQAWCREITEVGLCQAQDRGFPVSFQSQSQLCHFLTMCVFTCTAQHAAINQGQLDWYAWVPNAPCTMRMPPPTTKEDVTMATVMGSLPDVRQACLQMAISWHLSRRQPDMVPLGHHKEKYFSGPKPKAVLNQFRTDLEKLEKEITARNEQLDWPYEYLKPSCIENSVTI

These compounds were tested against Polyunsaturated fatty acid lipoxygenase ALOX12 (Homo sapiens) (UniProt P18054) (assay: Primary qHTS assay for inhibitors of human arachidonate 12S-lipoxygenase (ALOX12): Round 2). Settings: purified 12hLO, xylenol orange hydroperoxide absorbance; activity change, negative = inhibition: at 108 µM (top of the series) unless noted.
Procedure, shortened: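 Purified human 12hLO at 150 nM in 25 mM Hepes, 0.01% Triton X-100, pH 7.0, preincubated 15 min at room temperature with compound. Reaction started with 40 uM arachidonic acid, 30 min at room temperature. Hydroperoxide measured by Fe-xylenol orange, 573/405 nm absorbance ratio.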
On the % scale 0 is the no-effect control and ±100 the full control effect; potency means the concentration at half of the fitted maximal effect.

Compound | Potency | activity change, negative = inhibition
COc1ccc(Cl)cc1-n1c(=O)c(C#N)cc2c(=O)n3cccc(C)c3nc21 | inactive | 
Cc1ccc(C(=O)NC(=S)Nc2ccc(N3CCN(C(=O)c4ccco4)CC3)cc2)cc1 | inconclusive: 44.7 µM [inhibitor, partial curve, poor fit] | 
CCOc1ccc(CCNC(=O)c2ccc(Cn3c(=O)c4cccn4c4cccnc43)cc2)cc1 | inconclusive: 89.1 µM [inhibitor, partial curve, poor fit] | 
C[C@@H]1CN(CCCn2c3ccccc3c3ccccc32)C[C@H](C)N1 | inconclusive: 31.6 µM [inhibitor, partial curve, poor fit] | 
N/C(=N\OC(=O)c1ccc(Br)cc1)c1ccncc1 | inconclusive: 100 µM [inhibitor, partial curve, poor fit] | 
COc1ccc(OC)c(N(CC(=O)Nc2ccccc2F)S(=O)(=O)c2ccccc2)c1 | inconclusive: 22.4 µM [inhibitor, partial curve, poor fit] | 
O=C(NCCc1c[nH]c2ccccc12)c1cc2ccccc2[nH]1 | inactive | 
CCOC(=O)c1sc(N2C(=O)c3oc4ccc(F)cc4c(=O)c3C2c2cccc(OC)c2)nc1C (centres undefined) | inconclusive: 112 µM [inhibitor, partial curve, poor fit] | 
CCC(C)N(C(=O)COC(=O)CSc1ccc([N+](=O)[O-])cc1)C1CCS(=O)(=O)C1 (centres undefined) | inconclusive: 35.5 µM [inhibitor, single point] | 
CC(C)=CC(=O)O | inactive | 
COc1cccc(/C=N/n2c(-c3cc(C)[nH]n3)n[nH]c2=S)c1OC | inconclusive: 89.1 µM [inhibitor, single point] | 
Fc1ccc(-c2ccnc3nc(N4CCN(c5ccccc5)CC4)nn23)cc1 | inactive | 
CCOc1cc(C(=O)N=c2sccn2C)cc(Br)c1OC | inconclusive: 35.5 µM [inhibitor, single point] | 
O=C(Nc1nc(C23CC4CC(CC(C4)C2)C3)cs1)c1ccncc1 | inconclusive: 70.8 µM [inhibitor, single point] | 
Cc1cc(N2CCCCC2)nc2ccc(NC(=O)CCC(=O)N3CCN(c4cccc(Cl)c4)CC3)cc12 | inconclusive: 100 µM [inhibitor, partial curve, poor fit] | 
COc1cccc(C(=O)N=c2sc3cc(S(C)(=O)=O)ccc3n2C)c1 | inactive | 
N/C(=N\c1nc2c(c(=O)[nH]1)CCC2)Nc1cccc(Cl)c1 | inactive | 
Oc1c(C(c2ccccc2)N2CCOCC2)ccc2ccccc12 (centres undefined) | inconclusive: 4.47 µM [inhibitor, full curve, poor fit] | 
O=C(CN1C(=O)/C(=C/c2ccco2)SC1=S)NC1CCS(=O)(=O)C1 (centres undefined) | inconclusive: 100 µM [inhibitor, single point] | 
CC(=O)NCC(=O)OCc1ccc(COC(=O)CNC(C)=O)cc1 | inconclusive: 0.316 µM [inhibitor, full curve, poor fit] | 
NC(=O)c1sc2nc(N3CCOCC3)c3c(c2c1N)CCCC3 | inactive | 
CCSC1=N/C(=C\c2ccc(OC)cc2)C(=O)N1 | inconclusive: 79.4 µM [inhibitor, partial curve, poor fit] | 
CC(OC(=O)C1=CN2CCS(=O)(=O)N=C2C=C1)C(=O)Nc1ccccc1 (centres undefined) | inconclusive: 8.91 µM [inhibitor, full curve, poor fit] | 

As a short view, some entries already given.
Compound | Potency | activity change, negative = inhibition
O=C(CN1C(=O)/C(=C/c2ccco2)SC1=S)NC1CCS(=O)(=O)C1 (centres undefined) | inconclusive: 100 µM [inhibitor, single point] | 
CC(=O)NCC(=O)OCc1ccc(COC(=O)CNC(C)=O)cc1 | inconclusive: 0.316 µM [inhibitor, full curve, poor fit] | 

In the list so far, these contain fluorine.
Compound | Potency | activity change, negative = inhibition
COc1ccc(OC)c(N(CC(=O)Nc2ccccc2F)S(=O)(=O)c2ccccc2)c1 | inconclusive: 22.4 µM [inhibitor, partial curve, poor fit] | 
CCOC(=O)c1sc(N2C(=O)c3oc4ccc(F)cc4c(=O)c3C2c2cccc(OC)c2)nc1C (centres undefined) | inconclusive: 112 µM [inhibitor, partial curve, poor fit] | 
Fc1ccc(-c2ccnc3nc(N4CCN(c5ccccc5)CC4)nn23)cc1 | inactive | 

Next part.

Compound | Potency | activity change, negative = inhibition
Cc1c(C)c2ccc(OCC(=O)Nc3ccccc3)c(C)c2oc1=O | inconclusive: 100 µM [inhibitor, partial curve, poor fit] | 
N#CC1=C(SCC(=O)Nc2cccc3cccnc23)NC(=O)C(C#N)C12CCCCC2 (centres undefined) | inactive | 
COc1ccc(-n2nc(C)cc2N)cc1 | inconclusive: 126 µM [inhibitor, single point] | 
CCCOC(=O)c1nc2ccccc2nc1NCc1ccc2c(c1)OCO2 | inconclusive: 39.8 µM [inhibitor, partial curve, poor fit] | 
CCc1ccc(OCC(=O)NNC(=O)Cc2cccs2)cc1 | inconclusive: 50.1 µM [inhibitor, partial curve, poor fit] | 
Cc1cccc(NC(=O)C2CC(=O)n3cnnc3S2)c1 (centres undefined) | inconclusive: 31.6 µM [inhibitor, partial curve, poor fit] | 
Cc1c(C)n(Cc2ccccc2)c2ncnc(NCc3ccco3)c12 | inconclusive: 39.8 µM [inhibitor, partial curve, poor fit] | 
CN1CCCN(C(=O)CSc2ccccc2)CC1 | inconclusive: 25.1 µM [inhibitor, partial curve, poor fit] | 
Cc1ccc(-c2nnc(N3CCN(C(=O)c4ccco4)CC3)c3ccccc23)cc1 | inconclusive: 28.2 µM [inhibitor, partial curve, poor fit] | 
O=C(O)C1CC=CCC1C(=O)NNc1ccccc1 (centres undefined) | inconclusive: 141 µM [inhibitor, single point] | 
CCCCC(=O)NC1(C(F)(F)F)C(=O)Nc2c1c(=O)[nH]c(=O)n2-c1ccc(F)cc1 (centres undefined) | inconclusive: 10 µM [inhibitor, full curve, poor fit] | 
O=C(Nc1cc(Br)ccc1O)c1cc(-c2ccco2)on1 | active: 28.2 µM | 
Cc1ccc(-n2c(O)c(/C=N/NC(=O)C3COc4ccccc4O3)c3ccccc3c2=O)cc1 (centres undefined) | inactive | 
CCN(CC)C(=O)C1=C(C)Nc2nnnn2C1c1cccnc1 (centres undefined) | inconclusive: 31.6 µM [inhibitor, partial curve, poor fit] | 
COc1cc(C2C(C(=O)c3cccs3)=C(O)C(=O)N2c2cc(C)on2)ccc1O (centres undefined) | inconclusive: 17.8 µM [inhibitor, partial curve, poor fit] | 
CCNc1oc(-c2ccc(COc3cc(C)ccc3C)o2)nc1C#N | inconclusive: 44.7 µM [inhibitor, partial curve, poor fit] | 
O=S(=O)(CC(CN1CCOCC1)N1CCCCC1)c1ccc2ccccc2c1 (centres undefined) | inconclusive: 44.7 µM [inhibitor, partial curve, poor fit] | 
O=C(c1ccccc1F)N(Cc1ccco1)C1CC1 | inconclusive: 7.08 µM [inhibitor, partial curve, poor fit] | 
CN1C(=O)NC(c2ccc(O)cc2)C2=C1CN(c1ccccc1)C2=O (centres undefined) | inactive | 
CN1/C(=C/C(=O)c2cccs2)Sc2ccccc21 | inconclusive: 63.1 µM [inhibitor, partial curve, poor fit] | 
C=CCN(CC=C)C(=S)NC(=O)/C=C/c1ccc(OC)cc1 | inactive | 
Cc1ccc(N2CCC(NS(=O)(=O)c3cn(C)c(C)n3)C2=O)cc1C (centres undefined) | inactive | 
CCCOC(=O)c1ccc(Oc2c(C)oc3cc(O)ccc3c2=O)cc1 | inactive | 

Compound | Potency | activity change, negative = inhibition
CCCCCCCCCCCCCCCCC | inactive | 
CCN(CC)CCN1C(=O)c2ccccc2NC1c1ccc(F)cc1 (centres undefined) |  | inconclusive: -32.7% [inhibitor]
CCc1ccc2oc(=O)cc(-c3cc4cccc(OC)c4o3)c2c1 | inconclusive: 50.1 µM [inhibitor, single point] | 
COC(=O)c1ccc2nc(-c3cccc(Br)c3)c(Cc3ccccc3C(F)(F)F)n2c1 | inactive | 
COc1ccccc1N1CCN(C(c2ccccc2)c2nnc(-c3ccccc3Cl)o2)CC1 (centres undefined) | inactive | 
CC1(Oc2ccc3ccccc3c2)CCN(Cc2cccn2-c2nccs2)C1 (centres undefined) | inconclusive: 50.1 µM [inhibitor, partial curve, poor fit] | 
Cn1cccc1Cc1nnc(SCC(=O)N2CCCC2)n1CCc1ccccc1 | inactive | 
O=C(CCS(=O)(=O)c1ccccc1)Nc1ccc2c(c1)C(=O)NC2=O | inconclusive: 0.355 µM [inhibitor, partial curve, poor fit] | 
CCOC(=O)c1c(NC(=S)Nc2ccc(OCC)cc2)sc2c1CCN(C)C2 | inconclusive: 39.8 µM [inhibitor, partial curve, poor fit] | 
CC1(C)CC(=O)C(C=NCCN2CCN(C3CC(=O)N(c4cccc(Br)c4)C3=O)CC2)=C(O)C1 (centres undefined) | inactive | 
O=C(O)Cn1ccc2cc(OCC3CCN(C(=O)CCC(F)(F)F)CC3)cnc21 | inconclusive: 31.6 µM [inhibitor, full curve] | 
CN(C)Cc1nnc(C2CC(NC(=O)c3ccc4c(c3)CCCO4)C2)n1C (centres undefined) | inactive | 
CC(=O)Nc1ccc(/C(C)=N/NC(N)=S)cc1 | active: 28.2 µM | 
Cn1cnnc1SCC(=O)Nc1sc2c(c1C#N)CCCCC2 | inconclusive: 44.7 µM [inhibitor, partial curve, poor fit] | 
NC(=O)NCCC(=O)O | inactive | 
CC(CNC(=O)c1cc2ccccc2oc1=O)(c1ccccc1)c1ccccc1 | inconclusive: 5.01 µM [inhibitor, full curve, poor fit] | 
C/C(=N\Nc1cc(-c2ccccc2)nc(-c2ccccc2)n1)c1ccc(O)c(C)c1 | inactive | 
COc1ccc(NC(=O)C2CCCN(S(C)(=O)=O)C2)cc1 (centres undefined) | inconclusive: 6.31 µM [inhibitor, full curve] | 
Cc1ncc2n1C(=O)N(C1CCN(Cc3ccnn3C)CC1)C2 | inconclusive: 11.2 µM [inhibitor, full curve] | 
CC(C)(C)c1ccc(C(=O)Nc2nnc(SCC(=O)NCC3CCCO3)s2)cc1 (centres undefined) | inactive | 
Cc1cccc(CS(=O)Cc2coc(-c3ccc(F)cc3)n2)c1 (centres undefined) | inconclusive: 35.5 µM [inhibitor, partial curve, poor fit] | 
COc1ccc(/C=C/c2nc3c(ccc4ccccc43)s2)c(OC)c1OC | inactive | 
O=C(NC1CCN(c2cc(-c3cccs3)[nH]n2)C1)c1cc(F)ccc1Cl (centres undefined) | inactive | 
